The record followed here is article PMC9917560, “Design, Synthesis and Antimicrobial Evaluation of New N-(1-Hydroxy-1,3-dihydrobenzo[c][1,2]oxaborol-6-yl)(hetero)aryl-2-carboxamides as Potential Inhibitors of Mycobacterial Leucyl-tRNA Synthetase” (International Journal of Molecular Sciences, 2023).

Structures are written as SMILES.

The data set concerns HepG2 cell line. Description: Cytotoxicity screening, CellTiter 96 assay. Conditions: SI = IC50 (µM)/MICMtbH37Rv (µM).
`O=C(Nc1ccc2c(c1)B(O)OC2)c1cnccn1` [Compound 1, N-(1-hydroxy-1,3-dihydrobenzo[c][1,2]oxaborol-6-yl)pyrazine-2-carboxamide] displayed an SI of more than 20.40.

`Cc1cnc(C(=O)Nc2ccc3c(c2)B(O)OC3)cn1` [Compound 2, N-(1-hydroxy-1,3-dihydrobenzo[c][1,2]oxaborol-6-yl)-5-methylpyrazine-2-carboxamide] showed an SI of more than 10.76.

`O=C(Nc1ccc2c(c1)B(O)OC2)c1ccccn1` [Compound 10, N-(1-hydroxy-1,3-dihydrobenzo[c][1,2]oxaborol-6-yl)picolinamide] gave an SI of more than 20.33.

`O=C(Nc1ccc2c(c1)B(O)OC2)c1ccc(C(F)(F)F)cn1` [Compound 11, N-(1-hydroxy-1,3-dihydrobenzo[c][1,2]oxaborol-6-yl)-5-(trifluoromethyl)picolinamide]: the SI is given as more than 10.29.

For the compound `O=C(Nc1ccc2c(c1)B(O)OC2)c1ccc(Cl)cc1` [Compound 14, 4-chloro-N-(1-hydroxy-1,3-dihydrobenzo[c][1,2]oxaborol-6-yl)benzamide], the SI was more than 23.00.
